For some assays here: Strings that start with PEPTIDE1 are HELM notation: dots part the residues, brackets hold end groups and non-standard residues.
What was measured:
[1] = general procedure: Boc solid-phase peptide synthesis; t-boc-Gly-OCH2 PAM resin; HOBT-ester of t-boc amino acid; conditions: whole synthesis, analytical reverse-phase HPLC, scale of the general procedure 0.1 mmole or 0.5 mmole, TFA salt
[2] = general procedure: Boc solid-phase peptide synthesis; p-methylbenzhydrylamine resin; HOBT-ester of t-boc amino acid; conditions: whole synthesis, analytical reverse-phase HPLC, scale of the general procedure 0.1 mmole or 0.5 mmole, TFA salt

PEPTIDE1{W.S.P.C.S.V.T.C.G}$$$$V2.0
final HPLC purity [1]: 90%

WSPCSVTCG-NH2 (C-amide)
final HPLC purity [2]: 90%

— patent US5200397A (W. R. Grace & Co.-Conn., priority 1991, dated 1993)
